Measured values reported in paper PMC13195034.
No constants are given. Whether binding was seen depends on the method and setting. Binding calls can cover weak binding; strength is not graded here.

Chains of the proteins cited; added tags and fusions are not shown. Lines headed by an entry give the natural chain unless they say otherwise; changes in a name come on top.
UniProt P34021: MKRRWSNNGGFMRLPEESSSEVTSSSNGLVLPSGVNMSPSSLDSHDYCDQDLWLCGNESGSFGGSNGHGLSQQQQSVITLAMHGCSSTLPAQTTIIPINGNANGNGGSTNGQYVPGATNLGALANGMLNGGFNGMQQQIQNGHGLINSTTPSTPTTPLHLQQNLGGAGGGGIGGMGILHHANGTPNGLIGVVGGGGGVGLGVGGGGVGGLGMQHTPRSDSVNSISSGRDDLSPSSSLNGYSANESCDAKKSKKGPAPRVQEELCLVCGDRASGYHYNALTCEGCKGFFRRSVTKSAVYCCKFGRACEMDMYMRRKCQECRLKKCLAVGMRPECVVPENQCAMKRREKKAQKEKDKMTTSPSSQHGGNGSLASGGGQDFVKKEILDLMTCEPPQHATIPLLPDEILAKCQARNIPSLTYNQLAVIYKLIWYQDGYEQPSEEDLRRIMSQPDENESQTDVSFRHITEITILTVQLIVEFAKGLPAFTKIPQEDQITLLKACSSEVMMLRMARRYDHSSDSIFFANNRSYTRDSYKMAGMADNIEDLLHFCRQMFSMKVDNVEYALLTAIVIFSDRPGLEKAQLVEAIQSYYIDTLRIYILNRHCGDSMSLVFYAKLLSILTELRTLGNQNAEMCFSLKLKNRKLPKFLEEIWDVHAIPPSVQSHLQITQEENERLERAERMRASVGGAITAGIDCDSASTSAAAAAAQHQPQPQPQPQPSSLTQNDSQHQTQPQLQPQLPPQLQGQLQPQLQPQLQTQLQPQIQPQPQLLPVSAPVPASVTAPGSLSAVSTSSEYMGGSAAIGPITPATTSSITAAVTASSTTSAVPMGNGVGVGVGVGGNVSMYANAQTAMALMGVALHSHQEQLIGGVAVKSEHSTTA
UniProt P20153: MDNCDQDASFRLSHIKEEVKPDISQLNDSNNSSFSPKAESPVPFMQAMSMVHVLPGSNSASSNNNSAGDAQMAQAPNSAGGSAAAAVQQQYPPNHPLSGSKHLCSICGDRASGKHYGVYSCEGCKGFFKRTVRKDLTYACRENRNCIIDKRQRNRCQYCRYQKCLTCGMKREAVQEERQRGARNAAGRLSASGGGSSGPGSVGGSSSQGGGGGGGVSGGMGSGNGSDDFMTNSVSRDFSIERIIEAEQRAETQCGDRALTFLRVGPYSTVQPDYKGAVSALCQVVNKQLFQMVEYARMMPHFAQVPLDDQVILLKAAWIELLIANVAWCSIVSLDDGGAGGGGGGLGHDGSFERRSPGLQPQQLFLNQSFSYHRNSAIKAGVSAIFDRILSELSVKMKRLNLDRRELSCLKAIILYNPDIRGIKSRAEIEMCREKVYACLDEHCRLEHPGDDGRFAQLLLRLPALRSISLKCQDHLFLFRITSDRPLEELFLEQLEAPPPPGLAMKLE
UniProt O44960: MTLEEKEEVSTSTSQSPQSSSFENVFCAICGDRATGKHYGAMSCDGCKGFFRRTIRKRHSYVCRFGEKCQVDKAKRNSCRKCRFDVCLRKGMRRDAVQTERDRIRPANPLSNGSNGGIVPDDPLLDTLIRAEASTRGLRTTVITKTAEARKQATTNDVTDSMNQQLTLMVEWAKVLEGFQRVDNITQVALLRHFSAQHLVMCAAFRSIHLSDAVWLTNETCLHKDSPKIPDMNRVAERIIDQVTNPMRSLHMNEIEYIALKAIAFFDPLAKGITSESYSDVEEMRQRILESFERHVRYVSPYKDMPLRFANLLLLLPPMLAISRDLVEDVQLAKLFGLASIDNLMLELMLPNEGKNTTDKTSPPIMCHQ

Target: Drosophila melanogaster ecdysone receptor (ECR), ligand-binding domain (Drosophila melanogaster) (UniProt P34021)
Assay: two-hybrid; Matchmaker Gold system, Y2HGold yeast co-transformed with pGBKT7 (bait) and pGADT7 (prey); HIS3 and MEL1 reporters on SD-Leu-Trp-His/X-alpha-gal plates, streak method, growth and blue colour within 24-48 h; without ligand

| binding | Substance |
| --- | --- |
| binds weakly | Drosophila melanogaster USP, ligand-binding domain (from UniProt P20153) (domain or fragment) |
| binds | Caenorhabditis elegans NHR-64, ligand-binding domain (from UniProt O44960) (domain or fragment) |
